No constants are given. Whether binding was seen depends on the method and setting. Binding can be weak; no strength is given. Where a sequence is shown, tags or fusion partners need not be part of it. For some assays here: In cells and extracts the contact can be indirect.
Key:
[1] = target: OsRF1 fused to the GAL4 DNA-binding domain (pGBKT7-OsRF1) (rice (Oryza sativa)); test: two-hybrid; bait pGBKT7-OsRF1 (GAL4 BD), prey pGADT7-OsPP2Cs (GAL4 AD), yeast AH109; colour change on SD-LT with X-α-Gal, 30°C, 3 days
[2] = target: OsRF1 fused to the GAL4 DNA-binding domain (pGBKT7-OsRF1) (rice (Oryza sativa)); test: two-hybrid; bait pGBKT7-OsRF1 (GAL4 BD), prey pGADT7-OsPP2Cs (GAL4 AD), yeast AH109; growth selection on SD-LTH, 30°C, 3 days
[3] = target: OsRF1-GFP fusion protein (rice (Oryza sativa)); test: co-IP; rice protoplasts co-transfected with OsRF1-GFP and OsPP2C09-HA, 20 h with 10 μM MG132; lysate on GFP-Trap beads, 4°C, 2 h; 150 mM NaCl, 50 mM Tris-HCl pH 7.5; blots with anti-HA and anti-GFP
[4] = target: OsRF1 fused to the C-terminal part of YFP (pVYCE-OsRF1) (rice (Oryza sativa)); test: split reporter; BiFC in rice protoplasts co-transformed with pVYCE-OsRF1 and pVYNE-OsPP2C; 16 h with 50 μM MG132 (also looked at without MG132); confocal microscopy

Row | binding [1] | binding [2] | binding [4] | Binder | further results
1 | binds weakly |  |  | OsPP2C08 fused to the GAL4 activation domain (pGADT7-OsPP2C08) (enzyme, UniProt Q5SN75 1-403) MSSDTSRRDHAAMAVREVLAGDRKVGTVSRSARRRRLELRRLGRTASAVAEDDAAKRVRPASDSSSDSSESAKVAPEPTAEVARWPACVSHGAVSVIGRRREMEDAIFVAAPFLAASKEAAVEGSGVAEEEGKEEDEGFFAVYDGHGGSRVAEACRERMHVVLAEEVRVRRLLQGGGGGADVEDEDRARWKEAMAACFTRVDGEVGGAEEADTGEQTVGSTAVVAVVGPRRIVVANCGDSRAVLSRGGVAVPLSSDHKPDRPDEMERVEAAGGRVINWNGYRILGVLATSRSIGDYYLKPYVIAEPEVTVMDRTDKDEFLILASDGLWDVVSNDVACKIARNCLSGRAASKYPESVSGSTAADAAALLVELAISRGSKDNISVVVVELRRLRSRTTASKENGR | 
2 | binds | binds |  | OsPP2C09 fused to the GAL4 activation domain (pGADT7-OsPP2C09) (enzyme, UniProt Q5N9N2 1-414) MAEICCEEAMSPPATATAAVAAAVSASAAAAVSSAIDRRRRRMEMRRIRIASDLELQAGEDGRPGKRQRLARTASGAPRPDEDSASERPSCGRTEEFPRYGVTAVCGRRREMEDAVSIRPDFLPASGKFHFYGVFDGHGCSHVATTCQDRMHEIVAEEHNKGASGEVAPWRDVMEKSFARMDGEVGNRASTRSDDEPACPCEQQTPSRRDHAGSTAVVAVVSPTQVVVANAGDSRAVISRAGVPVALSVDHKPDRPDELERIEAAGGRVIYWDGARVLGVLAMSRAIGDGYLKPYVTSEPEVTVTERTDDDECLILASDGLWDVVTNEMACEVVRACFHNNGPPAPAARPSGVPSSAEAAETENGGAASVKGISKAESSDKACSDAAMLLTKLALARRSADNVSVVVVDLRRGL | 
3 |  |  |  | OsPP2C09-HA fusion protein (enzyme, UniProt Q5N9N2 1-414) MAEICCEEAMSPPATATAAVAAAVSASAAAAVSSAIDRRRRRMEMRRIRIASDLELQAGEDGRPGKRQRLARTASGAPRPDEDSASERPSCGRTEEFPRYGVTAVCGRRREMEDAVSIRPDFLPASGKFHFYGVFDGHGCSHVATTCQDRMHEIVAEEHNKGASGEVAPWRDVMEKSFARMDGEVGNRASTRSDDEPACPCEQQTPSRRDHAGSTAVVAVVSPTQVVVANAGDSRAVISRAGVPVALSVDHKPDRPDELERIEAAGGRVIYWDGARVLGVLAMSRAIGDGYLKPYVTSEPEVTVTERTDDDECLILASDGLWDVVTNEMACEVVRACFHNNGPPAPAARPSGVPSSAEAAETENGGAASVKGISKAESSDKACSDAAMLLTKLALARRSADNVSVVVVDLRRGL | binding [3]: binds
4 |  |  | binds | OsPP2C09 fused to the N-terminal part of YFP (pVYNE-OsPP2C09) (enzyme, UniProt Q5N9N2 1-414) MAEICCEEAMSPPATATAAVAAAVSASAAAAVSSAIDRRRRRMEMRRIRIASDLELQAGEDGRPGKRQRLARTASGAPRPDEDSASERPSCGRTEEFPRYGVTAVCGRRREMEDAVSIRPDFLPASGKFHFYGVFDGHGCSHVATTCQDRMHEIVAEEHNKGASGEVAPWRDVMEKSFARMDGEVGNRASTRSDDEPACPCEQQTPSRRDHAGSTAVVAVVSPTQVVVANAGDSRAVISRAGVPVALSVDHKPDRPDELERIEAAGGRVIYWDGARVLGVLAMSRAIGDGYLKPYVTSEPEVTVTERTDDDECLILASDGLWDVVTNEMACEVVRACFHNNGPPAPAARPSGVPSSAEAAETENGGAASVKGISKAESSDKACSDAAMLLTKLALARRSADNVSVVVVDLRRGL | 
5 | binds weakly | binds |  | OsPP2C30 fused to the GAL4 activation domain (pGADT7-OsPP2C30) (enzyme, UniProt Q84JI0 1-404) MAEICCEVVAGSSSEGKGPECDTGSRAARRRRMEIRRLRVVAERGAEEETSGKRRRLDGGGGEASTDEEDREVERARYGFTSVCGRRRDMEDSVSACPGFLPGHHFFGVFDGHGCSHVATSCGQRMHEIVVDEAGAAAGSAGLDEEARWRGVMERSFARMDAEAVASSRGSVAPAPTCRCEMQLPKCDHVGSTAVVAVLGPRHVVVANCGDSRAVLCRGGAAIPLSCDHKPDRPDELERIHAAGGRVIFWDGARVFGMLAMSRAIGDSYLKPYVICDPEVRVMERKDGEDEFLILASDGLWDVVSNEVACNVVRACLRSSGRRERNRSSPTSNLSPRQSSSSGDEAPNDGAPSAAAGSESDEESAAEEDKACAEAAVLLTKLALARQTSDNVSVVVVNLRRRKL | 
6 |  |  | no binding | OsPP2C30 fused to the N-terminal part of YFP (pVYNE-OsPP2C30) (enzyme, UniProt Q84JI0 1-404) MAEICCEVVAGSSSEGKGPECDTGSRAARRRRMEIRRLRVVAERGAEEETSGKRRRLDGGGGEASTDEEDREVERARYGFTSVCGRRRDMEDSVSACPGFLPGHHFFGVFDGHGCSHVATSCGQRMHEIVVDEAGAAAGSAGLDEEARWRGVMERSFARMDAEAVASSRGSVAPAPTCRCEMQLPKCDHVGSTAVVAVLGPRHVVVANCGDSRAVLCRGGAAIPLSCDHKPDRPDELERIHAAGGRVIFWDGARVFGMLAMSRAIGDSYLKPYVICDPEVRVMERKDGEDEFLILASDGLWDVVSNEVACNVVRACLRSSGRRERNRSSPTSNLSPRQSSSSGDEAPNDGAPSAAAGSESDEESAAEEDKACAEAAVLLTKLALARQTSDNVSVVVVNLRRRKL | 
7 | binds weakly | binds |  | OsPP2C53 fused to the GAL4 activation domain (pGADT7-OsPP2C53) (enzyme, UniProt Q6L4R7 1-445) MEDLALPAAPPAPTLSFTLLAAAAAVAEAMEEALGAALPPLTAPVPAPGDDSACGSPCSVASDCSSVASADFEGFAELGTSLLAGPAVLFDDLTAASVAVAEAAEPRAVGATARSVFAMDCVPLWGLESICGRRPEMEDDYAVVPRFFDLPLWMVAGDAAVDGLDRASFRLPAHFFAVYDGHGGVQVANYCRKRIHAVLTEELRRAEDDACGSDLSGLESKKLWEKAFVDCFSRVDAEVGGNAASGAPPVAPDTVGSTAVVAVVCSSHVIVANCGDSRAVLCRGKQPLPLSLDHKPNREDEYARIEALGGKVIQWNGYRVLGVLAMSRSIGDKYLKPYIIPVPEVTVVARAKDDDCLILASDGLWDVMSNEEVCDAARKRILLWHKKNAATASTSSAQISGDSSDPAAQAAADYLSKLALQKGSKDNITVVVIDLKAHRKFKSKA | 
8 |  |  | no binding | OsPP2C53 fused to the N-terminal part of YFP (pVYNE-OsPP2C53) (enzyme, UniProt Q6L4R7 1-445) MEDLALPAAPPAPTLSFTLLAAAAAVAEAMEEALGAALPPLTAPVPAPGDDSACGSPCSVASDCSSVASADFEGFAELGTSLLAGPAVLFDDLTAASVAVAEAAEPRAVGATARSVFAMDCVPLWGLESICGRRPEMEDDYAVVPRFFDLPLWMVAGDAAVDGLDRASFRLPAHFFAVYDGHGGVQVANYCRKRIHAVLTEELRRAEDDACGSDLSGLESKKLWEKAFVDCFSRVDAEVGGNAASGAPPVAPDTVGSTAVVAVVCSSHVIVANCGDSRAVLCRGKQPLPLSLDHKPNREDEYARIEALGGKVIQWNGYRVLGVLAMSRSIGDKYLKPYIIPVPEVTVVARAKDDDCLILASDGLWDVMSNEEVCDAARKRILLWHKKNAATASTSSAQISGDSSDPAAQAAADYLSKLALQKGSKDNITVVVIDLKAHRKFKSKA | 
